Source: patent US5656591A, “Antimicrobial agents and method for treating products therewith” (Morinaga Milk Industry Co., Ltd., priority 1992, dated 1997)
For part of these data: At least one peptide structure holds a part that was inferred or is arguable (an end, a ring closure or a residue). For part of these data: The name of at least one read-out is uncertain. No end group written: not given here.

Assays:
[1] = system: Staphylococcus aureus (JCM-2151); test: Viability assay (survival rate) in cow's milk medium; format: cell-based
Protocol: The colonies grown on the culture medium were scraped by a platinum loop and cultivated in 1% peptone (by Difco Company) culture medium for several hours at 37° C., and the resultant microbial culture at logarithmic phase was used as the preculture in a serial concentration of 3×10^8 /ml.
A quantity of the resultant solutions of the samples were selectively mixed with a quantity of the basal medium, thereby test media for the respective tests were prepared in the combinations and eventual concentrations as specified in the respective tests.
Utilizing the samples (5), (7), (8), (9), (10), (14), (15), (17), (18) and (19), test media were prepared in the same manner as in the preparation of the test media containing sample (3) and the like, except that the aqueous solution (in the cases of samples (5) and (7), aqueous suspensions) were not dealt with sterilization filters.
To 2 ml aliquots of test media prepared in (3-1) (supra), […] aliquots of the preculture of Staphylococcus aureus prepared in (1) (2. Method, supra) were added, then incubated at 37° C. for 1 hour, 200 μl aliquots of the resultant cultures were taken out and diluted with 1% peptone solution in a series of 10^n respectively, 110 μl aliquots of the resultant dilution series were spread onto plates of standard agar culture medium, and after incubation at 37° C. for 24 hours the number of colonies grown on the plates were counted (Test. Colony Count).
Control coloney counts 1 were determined in the same manner as in the determination of the test coloney counts, except that […] aliquots of the preculture of Staphylococcus aureus prepared in (1) (2. Method, supra) were added to 2 ml aliquots of the respective control media 1 prepared in (3-2) (supra). Furthermore, control coloney counts 2 were determined in the same manner as in the determination of the test coloney counts, except that […] aliquots of the preculture of Staphylococcus aureus prepared in (1) (supra) were added to 2 ml aliquots of the respective control media 1 prepared in (3-2) (supra).
Survival rate 1=(Test Colony Count/Control Colony Count 1)×100
Survival rate 2=(Control Colony Count 2/Control Colony Count 1)×100
(Note: In the tables shown hereinafter, vulues of survival rate 2 are indicated in the row where the concentration of antimicrobial peptide or lactoferrin hydrolysate is 0.)

[2] = system: Staphylocoecus aureus (JCM-2151); test: Viability assay in Mueller-Hington Broth; format: cell-based, Staphylococcus aureus; details: Test 25: peptide 10 μg/ml, penicillin 1 μg/ml
Protocol: (§1) Precultures of test microorganisms to be used in the tests described hereunder were prepared in such a manner that: from the frozen preservation of dispersions of test microorganisms, a loop of the respective strains of the microorganisms were taken out and spread onto TRI PETIT CASE SOYA AGAR MEDIA (by BBL Company), and incubated at 37° C. for 16 hours; the colonies grown on the culture media were scraped by a platinum loop and cultivated in 2.1% Mueller-Hington Broth (by Difco Company) respectively for several hours at 37° C. The resultant microbial cultures at logarithmic phase in 3×10^8 /ml of microbial concentration were used as the precultures.
(§2) The test media to be used in the respective tests were prepared in such a manner that: aqueous solutions in a predetermined concentration of the lactoferrin hydrolysates or the lactoferrin-derived antimicrobial peptides of (1) and (2) in Preparation of Samples (supra), as well as the samples of antibiotics of (3) (supra) were respectively sterilized with filters (by Advantec Company); then a quantity of the resultant solutions of respective samples were selectively added to a quantity of basal medium (Mueller-Hington Broth) prepared in the eventual concentration of 2.1%, thereby combinations of the samples and their concentrations in the respective test media were adjusted as specified in the respective tests. […]

Escherichia coli 0-111 = test: Test for antimicrobial activity (turbidity): growth inhibiting concentration of antibiotics; format: cell-based; details: Test 23
Protocol: as §1, §2

## CCCCCCCCCCCCCC(=O)OCC(O)CO (racemic) [1-monomyristoyl-rac-glycerol, 1-monomyristoyl-rac-Glycerol]
[1]; Test 18: peptide 0, 1-monomyristoyl-rac-glycerol 0.5 mg/ml
  survival rate: 129
[1]; Test 18: peptide 0, 1-monomyristoyl-rac-glycerol 1 mg/ml
  survival rate: 93
[1]; Test 18: peptide 0, 1-monomyristoyl-rac-glycerol 2 mg/ml
  survival rate: 7

## CCCCCCCC(=O)OCC(O)CO (racemic) [monocapryloyl-glycerol, 1-Monocapryloyl-rac-Glycerol]
[1]; Test 5: peptide 0, monocapryloyl-glycerol 0.5 mg/ml
  survival rate: 103
[1]; Test 5: peptide 0, monocapryloyl-glycerol 1 mg/ml
  survival rate: 115
[1]; Test 5: peptide 0, monocapryloyl-glycerol 2 mg/ml
  survival rate: 35

## O=C1O[C@H]([C@@H](O)CO)C(O)=C1O [ascorbic acid, Ascorbic Acid]
[1]; Test 10: lactoferrin hydrolysate 0, ascorbic acid 0.1 mg/ml
  survival rate: 122
[1]; Test 10: lactoferrin hydrolysate 0, ascorbic acid 0.5 mg/ml
  survival rate: 115
[1]; Test 10: lactoferrin hydrolysate 0, ascorbic acid 1 mg/ml
  survival rate: 132

## CC(O)CO (stereo not drawn) [propylene glycol, Propylene Glycol]
[1]; Test 8: peptide 0, propylene glycol 1 mg/ml
  survival rate: 82
[1]; Test 8: peptide 0, propylene glycol 10 mg/ml
  survival rate: 118
[1]; Test 8: peptide 0, propylene glycol 20 mg/ml
  survival rate: 118

## KTRRWQWRMKK [antimicrobial peptide (Seq. ID No. 27)]
[2]
  survival rate: 0.4%
Escherichia coli 0-111
  antimicrobial activity when no antibiotics were included (in words): no antimicrobial activity was observed
  effect on the antimicrobial activity of the antibiotics (in words): potentiated the antimicrobial activity of the antibiotics
